{
  "source": "patent US20080269163A1",
  "about": "“Methods and Compositions for Protecting Cells from Ultrasound-Mediated Cytolysis” (priority 2004, published 2008)",
  "test_system": "carbon-centered radicals",
  "experiment": "ESR spin trapping with DBNBS after sonolysis of cell suspension",
  "settings": "HGP 5 mM",
  "description": "Tertiary carbon-centered radicals are labeled 1, secondary carbon-centered radicals are labeled 2. Primary carbon-centered radicals are labeled 3. Conditions of sonolysis: frequency=1.057 MHz; time=15 seconds, power=60 W, argon-saturated solutions, temperature=25° C.\nElectron Spin Resonance (i.e., ESR or EPR) Measurements: cell suspensions (1 ml) with or without HGP (5 mM) were sonicated in the presence of DBNBS (3 mg/ml), which is effective at spin trapping carbon-centered radicals. Prior to sonolysis, the sample solution containing DBNBS was placed in the pyrex tube and sealed from the atmosphere using a “suba seal” (supplied by Aldrich). The sample was bubbled with argon gas through a needle for 5 minutes. The needle was raised to just above the sample solution, allowing argon gas to pass over the top of the cell suspension during sonolysis (1.057 MHz, p=60 W for 15 seconds). Purging the suspension with argon removes oxygen, thereby avoiding the formation of organic peroxyl radicals that cannot be spin trapped by DBNBS. Immediately following sonolysis, the sample was transferred into an ESR flat quartz cell. The ESR spectra were recorded on a Varian E-9X-band spectrometer with 100 kHz modulation frequency. The typical instrument settings were: modulation amplitude 1 G, time constant 0.128 s, scan speed 0.83 G s^−1.",
  "data": [
    {"molecule": "CCCCCCO[C@@H]1O[C@H](CO)[C@@H](O)[C@H](O)[C@H]1O", "note": "[HGP, hexyl-β-D-Glucopyranoside]", "values": [
      {"measurement": "carbon-centered radical yield relative to sonolysis in the absence of HGP", "value": "two times higher"},
      {"measurement": "total carbon-centered radical yield", "setting": "1.057 MHz, 60 W, 15 seconds, argon, DBNBS 3 mg/ml", "value": 1.6, "unit": "µM"}
    ]}
  ]
}
